According to the supplement of paper PMC4604168 (melanoma cell lines):
The list shows a part of the results. Many values rest on one well or one pass, so single values are uncertain.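 Cells were imaged in 1,536-well plates, and nuclei stained with an antibody against cleaved PARP were counted against all DNA-stained nuclei to give the apoptosis fraction. Screening doses were chosen to leave most cells alive, and resting and induced cleaved-PARP levels differ strongly between cell lines.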

Legend:
Test in all cases: cleaved PARP positive nuclei fraction relative to DMSO control; melanoma cells; higher = more apoptosis
Details in all cases: library dose: low library concentration; 72 h
MZ2-MEL = system: MZ2-MEL
MeWo = system: MeWo
RPMI7951 = system: RPMI7951
RVH-421 = system: RVH-421
SkMel28 = system: SkMel28
SkMel2 = system: SkMel2
SkMel30 = system: SkMel30
UACC62 = system: UACC62

| Structure (SMILES) | cleaved PARP positive nuclei fraction (MZ2-MEL) | cleaved PARP positive nuclei fraction (MeWo) | cleaved PARP positive nuclei fraction (RPMI7951) | cleaved PARP positive nuclei fraction (RVH-421) | cleaved PARP positive nuclei fraction (SkMel28) | cleaved PARP positive nuclei fraction (SkMel2) | cleaved PARP positive nuclei fraction (SkMel30) | cleaved PARP positive nuclei fraction (UACC62) |
| --- | --- | --- | --- | --- | --- | --- | --- | --- |
| NC(=O)c1ccc(N(C(N)=O)c2c(F)cccc2F)nc1-c1ccc(F)cc1F + CCCCCCCCc1ccc(CCC(N)(CO)CO)cc1 [fingolimod] (first compound 0.4 µM, partner dose 2 µM) | 81.7% | 41.1% | 301% | 359% | 89.5% | 207% | 57.9% | 248% |
| NC1(c2ccc(-c3nc4ccn5c(=O)[nH]nc5c4cc3-c3ccccc3)cc2)CCC1 + C=C(c1ccc(C(=O)O)cc1)c1cc2c(cc1C)C(C)(C)CCC2(C)C [Bexarotene] (first compound 0.4 µM, partner dose 2 µM) | 207% | 165% | 94.1% | 144% | 214% | 211% | 69% | 230% |
| Cn1cnc2c(F)c(Nc3ccc(Br)cc3Cl)c(C(=O)NOCCO)cc21 [selumetinib] + CC(C)C[C@H](NC(=O)[C@H](Cc1ccccc1)NC(=O)c1cnccn1)B(O)O [Bortezomib] (first compound 0.015 µM, partner dose 0.001 µM) | 264% | 66.7% | 30.3% | 240% | 94.8% | 200% | 121% | 183% |
| CCN(CC)CCNC(=O)c1c(C)[nH]c(/C=C2\C(=O)Nc3ccc(F)cc32)c1C [sunitinib] + Clc1ccc(Nc2nnc(Cc3ccncc3)c3ccccc23)cc1 [vatalanib] (first compound 0.4 µM, partner dose 2 µM) | 97.6% | 107% | 89.6% | 85% | 376% | 43% | 148% | 80.5% |
| Cn1cnc2c(F)c(Nc3ccc(Br)cc3Cl)c(C(=O)NOCCO)cc21 [selumetinib] + CCCS(=O)(=O)Nc1ccc(F)c(C(=O)c2c[nH]c3ncc(Cl)cc23)c1F [PLX4720] (first compound 0.015 µM, partner dose 0.08 µM) | 145% | 18.9% | 28.8% | 118% | 53.4% | 152% | 38.2% | 158% |
| NC1(c2ccc(-c3nc4ccn5c(=O)[nH]nc5c4cc3-c3ccccc3)cc2)CCC1 + C=CCNC1=C2C[C@@H](C)C[C@H](OC)[C@H](O)[C@@H](C)/C=C(\C)[C@H](OC(N)=O)[C@@H](OC)/C=C\C=C(/C)C(=O)NC(=CC1=O)C2=O [Tanespimycin] (first compound 0.4 µM, partner dose 0.002 µM) | 73.4% | 59.1% | 106% | 241% | 100% | 96.4% | 81.3% | 369% |
| CS(=O)(=O)c1ccc(C(=O)Nc2ccc(Cl)c(-c3ccccn3)c2)c(Cl)c1 [vismodegib] + Nc1ncn([C@H]2C[C@H](O)[C@@H](CO)O2)c(=O)n1 [decitabine] (first compound 1 µM, partner dose 0.1 µM) | 274% | 122% | 174% | 198% | 90.8% | 183% | 75.8% | 147% |
| COc1ccc(C2=N[C@@H](c3ccc(Cl)cc3)[C@@H](c3ccc(Cl)cc3)N2C(=O)N2CCNC(=O)C2)c(OC(C)C)c1 [Nutlin-3] + CC(=O)c1c(C)c2cnc(Nc3ccc(N4CCNCC4)cn3)nc2n(C2CCCC2)c1=O [palbociclib] (first compound 0.1 µM, partner dose 0.04 µM) | 77.7% | 54% | 178% | 71.3% | 80% | 31.7% | 45.1% | 129% |
| C[C@@H](N)c1ccc(C(=O)Nc2ccnc3[nH]ccc23)cc1 + C=C(c1ccc(C(=O)O)cc1)c1cc2c(cc1C)C(C)(C)CCC2(C)C [Bexarotene] (first compound 0.4 µM, partner dose 2 µM) | 307% | 119% | 94.4% | 139% | 63.2% | 231% | 27.8% | 297% |
| CC(=O)O[C@@]12CO[C@@H]1C[C@H](O)[C@@]1(C)C(=O)[C@H](O)C3=C(C)[C@@H](OC(=O)[C@H](O)[C@@H](NC(=O)OC(C)(C)C)c4ccccc4)C[C@@](O)([C@@H](OC(=O)c4ccccc4)[C@H]21)C3(C)C [Docetaxel] + CN(c1ncccc1CNc1nc(Nc2ccc3c(c2)CC(=O)N3)ncc1C(F)(F)F)S(C)(=O)=O [PF562271] (first compound 0.0001 µM, partner dose 0.08 µM) | 648% | 686% | 510% | 53.5% | 284% | 646% | 961% | 285% |
| COc1ccc(C2=N[C@@H](c3ccc(Cl)cc3)[C@@H](c3ccc(Cl)cc3)N2C(=O)N2CCNC(=O)C2)c(OC(C)C)c1 [Nutlin-3] + CS(=O)(=O)CCNCc1ccc(-c2ccc3ncnc(Nc4ccc(OCc5cccc(F)c5)c(Cl)c4)c3c2)o1 [lapatinib] (first compound 0.1 µM, partner dose 0.8 µM) | 66.9% | 40.8% | 21.4% | 114% | 73% | 155% | 63.9% | 267% |
| COc1ccc(C2=N[C@@H](c3ccc(Cl)cc3)[C@@H](c3ccc(Cl)cc3)N2C(=O)N2CCNC(=O)C2)c(OC(C)C)c1 [Nutlin-3] + COc1ccc(Cl)c(Nc2nc3ccccc3nc2NS(=O)(=O)c2cccc(NC(=O)C(C)(C)N)c2)c1 [XL147] (first compound 0.1 µM, partner dose 0.8 µM) | 159% | 28.1% | 119% | 119% | 83.2% | 106% | 121% | 63% |
| CC1(C)CCC(c2ccc(Cl)cc2)=C(CN2CCN(c3ccc(C(=O)NS(=O)(=O)c4ccc(N[C@H](CCN5CCOCC5)CSc5ccccc5)c(S(=O)(=O)C(F)(F)F)c4)cc3)CC2)C1 + Cc1cn(-c2cc(NC(=O)c3ccc(C)c(Nc4nccc(-c5cccnc5)n4)c3)cc(C(F)(F)F)c2)cn1 [nilotinib] (first compound 0.4 µM, partner dose 0.2 µM) | 402% | 410% | 206% | 151% | 38.8% | 150% | 108% | 85.9% |
| NC(=O)c1ccc(N(C(N)=O)c2c(F)cccc2F)nc1-c1ccc(F)cc1F + NC1(c2ccc(-c3nc4ccn5c(=O)[nH]nc5c4cc3-c3ccccc3)cc2)CCC1 [MK2206] (first compound 0.4 µM, partner dose 0.4 µM) | 158% | 68.7% | 457% | 288% | 65.1% | 194% | 42.2% | 346% |
| C[C@]1(O)C[C@@H](c2nc(-c3ccc4ccc(-c5ccccc5)nc4c3)c3c(N)nccn32)C1 + CC(=O)O[C@@]12CO[C@@H]1C[C@H](O)[C@@]1(C)C(=O)[C@H](O)C3=C(C)[C@@H](OC(=O)[C@H](O)[C@@H](NC(=O)OC(C)(C)C)c4ccccc4)C[C@@](O)([C@@H](OC(=O)c4ccccc4)[C@H]21)C3(C)C [Docetaxel] (first compound 0.4 µM, partner dose 0.0001 µM) | 435% | 237% | 468% | 77.2% | 133% | 733% | 436% | 698% |
| C[C@]1(O)C[C@@H](c2nc(-c3ccc4ccc(-c5ccccc5)nc4c3)c3c(N)nccn32)C1 + C=CCNC1=C2C[C@@H](C)C[C@H](OC)[C@H](O)[C@@H](C)/C=C(\C)[C@H](OC(N)=O)[C@@H](OC)/C=C\C=C(/C)C(=O)NC(=CC1=O)C2=O [Tanespimycin] (first compound 0.4 µM, partner dose 0.002 µM) | 234% | 354% | 108% | 774% | 183% | 75.8% | 89.8% | 118% |
| C[C@@H](N)c1ccc(C(=O)Nc2ccnc3[nH]ccc23)cc1 + Cn1c(Nc2ccc(C(F)(F)F)cc2)nc2cc(Oc3ccnc(-c4ncc(C(F)(F)F)[nH]4)c3)ccc21 [CHIR265] (first compound 0.4 µM, partner dose 0.08 µM) | 263% | 101% | 166% | 157% | 234% | 81.1% | 49.8% | 266% |
| C[C@@H](N)c1ccc(C(=O)Nc2ccnc3[nH]ccc23)cc1 + COc1ccc(C2=N[C@@H](c3ccc(Cl)cc3)[C@@H](c3ccc(Cl)cc3)N2C(=O)N2CCNC(=O)C2)c(OC(C)C)c1 [Nutlin-3] (first compound 0.4 µM, partner dose 0.1 µM) | 289% | 213% | 99% | 189% | 109% | 57% | 41.2% | 131% |
| C[C@]1(O)C[C@@H](c2nc(-c3ccc4ccc(-c5ccccc5)nc4c3)c3c(N)nccn32)C1 + CCN(CC)CCNC(=O)c1c(C)[nH]c(/C=C2\C(=O)Nc3ccc(F)cc32)c1C [sunitinib] (first compound 0.4 µM, partner dose 0.4 µM) | 199% | 44.4% | 85.8% | 84.7% | 180% | 98.2% | 79.7% | 136% |
| Cn1cnc2c(F)c(Nc3ccc(Br)cc3Cl)c(C(=O)NOCCO)cc21 [selumetinib] + CCCCCCCCc1ccc(CCC(N)(CO)CO)cc1 [fingolimod] (first compound 0.015 µM, partner dose 2 µM) | 150% | 43.6% | 95.8% | 118% | 97.9% | 223% | 169% | 466% |

Exported as labelled records: part of the list above
CCN(CC)CCNC(=O)c1c(C)[nH]c(/C=C2\C(=O)Nc3ccc(F)cc32)c1C [sunitinib] + Clc1ccc(Nc2nnc(Cc3ccncc3)c3ccccc23)cc1 [vatalanib] (first compound 0.4 µM, partner dose 2 µM)
  cleaved PARP positive nuclei fraction (MZ2-MEL): 97.6%; cleaved PARP positive nuclei fraction (MeWo): 107%; cleaved PARP positive nuclei fraction (RPMI7951): 89.6%; cleaved PARP positive nuclei fraction (RVH-421): 85%; cleaved PARP positive nuclei fraction (SkMel28): 376%; cleaved PARP positive nuclei fraction (SkMel2): 43%; cleaved PARP positive nuclei fraction (SkMel30): 148%; cleaved PARP positive nuclei fraction (UACC62): 80.5%
Cn1cnc2c(F)c(Nc3ccc(Br)cc3Cl)c(C(=O)NOCCO)cc21 [selumetinib] + CCCS(=O)(=O)Nc1ccc(F)c(C(=O)c2c[nH]c3ncc(Cl)cc23)c1F [PLX4720] (first compound 0.015 µM, partner dose 0.08 µM)
  cleaved PARP positive nuclei fraction (MZ2-MEL): 145%; cleaved PARP positive nuclei fraction (MeWo): 18.9%; cleaved PARP positive nuclei fraction (RPMI7951): 28.8%; cleaved PARP positive nuclei fraction (RVH-421): 118%; cleaved PARP positive nuclei fraction (SkMel28): 53.4%; cleaved PARP positive nuclei fraction (SkMel2): 152%; cleaved PARP positive nuclei fraction (SkMel30): 38.2%; cleaved PARP positive nuclei fraction (UACC62): 158%
